Reference: article PMC10394025
Results are given in words; binding and its absence hold for the method and conditions named. Binding seen in cells or lysates may run through a third protein. Some entries that bind do so weakly or less than the wild type. For some assays here: Sequences can lack the tags named with a protein. Blank lines part the entries; values can stand above or below the binder they belong to.

How the values were obtained:
[1] = target: T1, USP15 (endogenous, AML12 cells) (mouse (endogenous in AML12)) (UniProt Q8R5H1); assay: co-IP; endogenous proteins; AML12 cell lysates immunoprecipitated using IgG and USP15 antibodies, protein A/G agarose beads, Western blot
T1 sequence: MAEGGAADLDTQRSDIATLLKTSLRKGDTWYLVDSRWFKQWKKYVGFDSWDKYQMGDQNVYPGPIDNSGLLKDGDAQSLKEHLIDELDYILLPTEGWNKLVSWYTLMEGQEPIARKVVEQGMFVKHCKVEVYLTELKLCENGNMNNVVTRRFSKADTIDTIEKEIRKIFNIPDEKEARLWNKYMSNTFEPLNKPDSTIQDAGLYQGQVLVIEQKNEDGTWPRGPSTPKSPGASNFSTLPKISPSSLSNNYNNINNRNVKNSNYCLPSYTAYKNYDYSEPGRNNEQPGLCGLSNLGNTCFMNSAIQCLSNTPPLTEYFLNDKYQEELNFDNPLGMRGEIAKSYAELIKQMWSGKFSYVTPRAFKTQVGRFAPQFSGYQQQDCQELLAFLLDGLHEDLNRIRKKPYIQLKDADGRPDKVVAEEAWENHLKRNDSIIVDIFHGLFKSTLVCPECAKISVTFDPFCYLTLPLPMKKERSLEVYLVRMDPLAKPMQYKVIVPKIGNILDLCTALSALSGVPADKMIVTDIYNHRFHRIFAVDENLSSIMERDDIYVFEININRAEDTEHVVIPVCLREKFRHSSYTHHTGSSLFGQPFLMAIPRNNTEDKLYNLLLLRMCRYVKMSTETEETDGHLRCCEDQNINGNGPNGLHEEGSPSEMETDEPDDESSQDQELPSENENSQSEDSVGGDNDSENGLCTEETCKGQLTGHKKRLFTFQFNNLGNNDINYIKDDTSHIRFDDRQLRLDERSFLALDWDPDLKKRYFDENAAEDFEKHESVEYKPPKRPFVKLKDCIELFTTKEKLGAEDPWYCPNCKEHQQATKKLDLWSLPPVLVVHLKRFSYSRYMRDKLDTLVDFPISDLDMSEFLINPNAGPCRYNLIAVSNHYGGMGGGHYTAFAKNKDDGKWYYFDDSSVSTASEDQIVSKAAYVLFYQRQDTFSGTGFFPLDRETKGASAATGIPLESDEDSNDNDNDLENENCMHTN

FLAG-USP15 (HEK293) = target: T2, FLAG-USP15 (HEK293) (UniProt Q8R5H1); assay: co-IP; HEK293 cells transfected with FLAG-USP15, HA-FABP4 or HA-Perilipin1 plasmids; immunoprecipitated using a FLAG antibody, Western blot
T2 sequence: T1 sequence

[2] = target: T3, USP15 (in vitro GST pulldown assay) (UniProt Q8R5H1); assay: pull-down; in vitro GST pulldown assay; which protein carried GST is not told
T3 sequence: T1 sequence

binding [1]: binds
B1: FABP4 (endogenous, AML12 cells) (protein, UniProt P04117 1-132)
chain: MCDAFVGTWKLVSSENFDDYMKEVGVGFATRKVAGMAKPNMIISVNGDLVTIRSESTFKNTEISFKLGVEFDEITADDRKVKSIITLDGGALVQVQKWDGKSTTIKRKRDGDKLVVECVMKGVTSTRVYERA

binding (FLAG-USP15 (HEK293)): binds
B2: HA-FABP4 (HEK293) (protein, UniProt P04117 1-132)
chain: B1 chain

binding [2]: binds
B3: FABP4 (in vitro GST pulldown assay) (protein, UniProt P04117 1-132)
chain: B1 chain

binding [1]: binds
B4: FABP1 (endogenous, AML12 cells) (protein, UniProt P12710 1-127)
chain: MNFSGKYQLQSQENFEPFMKAIGLPEDLIQKGKDIKGVSEIVHEGKKIKLTITYGPKVVRNEFTLGEECELETMTGEKVKAVVKLEGDNKMVTTFKGIKSVTELNGDTITNTMTLGDIVYKRVSKRI

binding [2]: binds
B5: Perilipin1 (in vitro GST pulldown assay) (protein, UniProt Q8CGN5 1-517)
chain: MSMNKGPTLLDGDLPEQENVLQRVLQLPVVSGTCECFQKTYNSTKEAHPLVASVCNAYEKGVQGASNLAAWSMEPVVRRLSTQFTAANELACRGLDHLEEKIPALQYPPEKIASELKGTISTRLRSARNSISVPIASTSDKVLGATLAGCELALGMAKETAEYAANTRVGRLASGGADLALGSIEKVVEFLLPPDKESAPSSGRQRTQKAPKAKPSLVRRVSTLANTLSRHTMQTTAWALKQGHSLAMWIPGVAPLSSLAQWGASAAMQVVSRRQSEVRVPWLHNLAASQDESHDDQTDTEGEETDDEEEEEESEAEENVLREVTALPNPRGLLGGVVHTVQNTLRNTISAVTWAPAAVLGTVGRILHLTPAQAVSSTKGRAMSLSDALKGVTDNVVDTVVHYVPLPRLSLMEPESEFRDIDNPSAEAERKGSGARPASPESTPRPGQPRGSLRSVRGLSAPSCPGLDDKTEASARPGFLAMPREKPARRVSDSFFRPSVMEPILGRAQYSQLRKKS

binding [1]: binds
B6: Perilipin1 (endogenous, AML12 cells) (protein, UniProt Q8CGN5 1-517)
chain: B5 chain

binding (FLAG-USP15 (HEK293)): binds
B7: HA-Perilipin1 (HEK293) (protein, UniProt Q8CGN5 1-517)
chain: B5 chain

binding [1]: binds
B8: Perilipin2 (endogenous, AML12 cells) (protein, UniProt P43883 1-425)
chain: MAAAVVDPQQSVVMRVANLPLVSSTYDLVSSAYVSTKDQYPYLRSVCEMAEKGVKTVTSAAMTSALPIIQKLEPQIAVANTYACKGLDRMEERLPILNQPTSEIVASARGAVTGAKDVVTTTMAGAKDSVASTVSGVVDKTKGAVTGSVERTKSVVNGSINTVLGMVQFMNSGVDNAITKSELLVDQYFPLTQEELEMEAKKVEGFDMVQKPSNYERLESLSTKLCSRAYHQALSRVKEAKQKSQETISQLHSTVHLIEFARKNMHSANQKIQGAQDKLYVSWVEWKRSIGYDDTDESHCVEHIESRTLAIARNLTQQLQTTCQTVLVNAQGLPQNIQDQAKHLGVMAGDIYSVFRNAASFKEVSDGVLTSSKGQLQKMKESLDEVMDYFVNNTPLNWLVGPFYPQSTEVNKASLKVQQSEVKAQ
